PubChem BioAssay AID1259254, NCATS – 2017
Assay: 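Gene knock-downs that lead to re-replication, shown by excess G2 DNA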 (primary screen). System: human HCT116 colorectal cancer cells. Reagents: single siRNA against human genes. Time to read-out: 3 days. Read-out: 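Nuclei stained with Hoechst and imaged; cell-cycle phase assigned by DNA content; G2 share scaled per plate, non-targeting siRNA 0%, GMNN siRNA 100%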. Scale: G2 robust z-score and G2 cells, % of GMNN control: higher = more G2 cells, more excess DNA replication. Rule for the call: 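Active siRNAs have a G2 robust z of 5 or more median absolute deviations over the median, which in these data means about 38% or higher of GMNN control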.
Shown is one part, drawn at random, of about 59,000 reagents. About 1,550 of them (2.6%) count as active. 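G2 share is only a proxy for re-replication; each gene was hit by three separate siRNAs, and active genes were retested.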 Unmarked entries are inactive. The numbers tell different reagents against one gene apart. Not all columns of the deposit are shown. Reagent sequences are not shown. The record does not give: the amount of reagent.

Knock-down of CRHR2 (GeneID 1395) #1 gave: G2 robust z-score 2.69; G2 cells, % of GMNN control 21.9.
Against CRHR2 (GeneID 1395) #2, the values are G2 robust z-score 1.43; G2 cells, % of GMNN control 13.
CRHR2 (GeneID 1395) #3 scored G2 robust z-score 5.57 (active); G2 cells, % of GMNN control 42.1.
After knock-down of DOCK3 (GeneID 1795) #1 the results were G2 robust z-score 1.3; G2 cells, % of GMNN control 12.1.
With knock-down of DOCK3 (GeneID 1795) #2 the results were G2 robust z-score -0.915; G2 cells, % of GMNN control -3.47.
For DOCK3 (GeneID 1795) #3, the entry reads G2 robust z-score -0.56; G2 cells, % of GMNN control -0.974.
CCL22 (GeneID 6367) #1 gave G2 robust z-score 0.83; G2 cells, % of GMNN control 8.81.
After knock-down of CCL22 (GeneID 6367) #2, the record shows G2 robust z-score -0.63; G2 cells, % of GMNN control -1.47.
For CCL22 (GeneID 6367) #3, the values are G2 robust z-score 0.989; G2 cells, % of GMNN control 9.93.
Silencing of LRTM3 (GeneID 643677) #1 came out at: G2 robust z-score 0.903; G2 cells, % of GMNN control 9.32.
Against LRTM3 (GeneID 643677) #2, the entry reads G2 robust z-score -0.0839; G2 cells, % of GMNN control 2.38.
Knock-down of LRTM3 (GeneID 643677) #3 came out at: G2 robust z-score 0.263; G2 cells, % of GMNN control 4.81.
For LRTM3 (GeneID 643677) #4, the values are G2 robust z-score 0.388; G2 cells, % of GMNN control 5.7.
After knock-down of LRTM3 (GeneID 643677) #5, the screen gave G2 robust z-score 0.0729; G2 cells, % of GMNN control 3.48.
Knock-down of LRTM3 (GeneID 643677) #6 gave: G2 robust z-score 1.08; G2 cells, % of GMNN control 10.6.
PPP1R16B (GeneID 26051) #1 scored G2 robust z-score -0.765; G2 cells, % of GMNN control -2.41.
PPP1R16B (GeneID 26051) #2 gave G2 robust z-score -1.37; G2 cells, % of GMNN control -6.69.
After knock-down of PPP1R16B (GeneID 26051) #3 the results were G2 robust z-score -1.17; G2 cells, % of GMNN control -5.24.
Knock-down of GALE (GeneID 2582) #1 resulted in: G2 robust z-score -0.875; G2 cells, % of GMNN control -3.19.
For GALE (GeneID 2582) #2 the deposit lists G2 robust z-score 0.188; G2 cells, % of GMNN control 4.29.
For GALE (GeneID 2582) #3, the entry reads G2 robust z-score -0.0497; G2 cells, % of GMNN control 2.62.
Against CTNND2 (GeneID 1501) #1 the deposit lists G2 robust z-score -0.321; G2 cells, % of GMNN control 0.712.
Silencing of CTNND2 (GeneID 1501) #2 resulted in: G2 robust z-score 1.15; G2 cells, % of GMNN control 11.1.
Silencing of CTNND2 (GeneID 1501) #3 resulted in: G2 robust z-score 1.18; G2 cells, % of GMNN control 11.3.

Entries above whose gene name starts with P or p:
PPP1R16B (GeneID 26051) #1 | G2 robust z-score = -0.765; G2 cells, % of GMNN control = -2.41
PPP1R16B (GeneID 26051) #2 | G2 robust z-score = -1.37; G2 cells, % of GMNN control = -6.69
PPP1R16B (GeneID 26051) #3 | G2 robust z-score = -1.17; G2 cells, % of GMNN control = -5.24
